{"source": "patent US20160168724A1", "about": "“POLYVINYLBUTYRAL COATING CONTAINING THIOL CORROSION INHIBITORS” (The Boeing Company, priority 2014, published 2016)", "test": "Open circuit potential of PVB-coated panels (panel as working electrode)", "details": "5% NaCl-PBS"}
{"smiles": "Sc1nnc(S)s1", "note": "[DMcT, 1,3,4-Thiadiazole-2,5-dithiol]", "values": [{"measurement": "time for open circuit potential to reach steady state", "setting": "0.5% (wt/wt) DMcT in spray-applied PVB coating, also printed as 14 h", "value": 50, "unit": "ks"}, {"measurement": "time for open circuit potential to reach steady state", "setting": "5% (wt/wt) DMcT in spray-applied PVB coating, also printed as 28 h", "value": "approximately 100 ks"}]}
